Assay [1] has as its target HSP70 expressed from a plasmid in transfected 293T cells (UniProt P0DMV8). In words: co-IP from co-transfected 293T cells: IP anti-GFP, IB anti-HSP70.
In assay [2] the target is T1, RFP-fused GBA (encoded by pDsRed-GBA) (UniProt P04062).
T1 sequence (looked up): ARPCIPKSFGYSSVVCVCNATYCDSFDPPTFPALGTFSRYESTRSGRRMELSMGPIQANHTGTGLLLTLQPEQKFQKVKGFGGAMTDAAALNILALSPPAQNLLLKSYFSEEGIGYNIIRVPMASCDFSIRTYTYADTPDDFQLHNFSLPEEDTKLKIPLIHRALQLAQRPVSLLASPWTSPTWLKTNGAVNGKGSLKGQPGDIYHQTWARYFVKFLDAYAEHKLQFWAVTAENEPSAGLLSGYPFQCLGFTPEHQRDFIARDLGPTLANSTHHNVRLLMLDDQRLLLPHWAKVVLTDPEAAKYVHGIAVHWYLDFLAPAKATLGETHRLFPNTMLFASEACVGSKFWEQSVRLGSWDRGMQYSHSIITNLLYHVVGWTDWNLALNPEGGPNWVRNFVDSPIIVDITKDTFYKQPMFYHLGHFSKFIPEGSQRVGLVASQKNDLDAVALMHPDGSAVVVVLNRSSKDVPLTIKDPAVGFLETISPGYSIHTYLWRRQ
In words: co-IP from co-transfected 293T cells: IP anti-GFP, IB anti-RFP.

Amino acid sequences for entries named in this document (tags omitted). A change or cut given only in a name is not applied to a line headed by its entry. Chains listed by the source or under a name are the forms on record and can include a tag or linker. Residues count along the entry.
UniProt P0DMV8: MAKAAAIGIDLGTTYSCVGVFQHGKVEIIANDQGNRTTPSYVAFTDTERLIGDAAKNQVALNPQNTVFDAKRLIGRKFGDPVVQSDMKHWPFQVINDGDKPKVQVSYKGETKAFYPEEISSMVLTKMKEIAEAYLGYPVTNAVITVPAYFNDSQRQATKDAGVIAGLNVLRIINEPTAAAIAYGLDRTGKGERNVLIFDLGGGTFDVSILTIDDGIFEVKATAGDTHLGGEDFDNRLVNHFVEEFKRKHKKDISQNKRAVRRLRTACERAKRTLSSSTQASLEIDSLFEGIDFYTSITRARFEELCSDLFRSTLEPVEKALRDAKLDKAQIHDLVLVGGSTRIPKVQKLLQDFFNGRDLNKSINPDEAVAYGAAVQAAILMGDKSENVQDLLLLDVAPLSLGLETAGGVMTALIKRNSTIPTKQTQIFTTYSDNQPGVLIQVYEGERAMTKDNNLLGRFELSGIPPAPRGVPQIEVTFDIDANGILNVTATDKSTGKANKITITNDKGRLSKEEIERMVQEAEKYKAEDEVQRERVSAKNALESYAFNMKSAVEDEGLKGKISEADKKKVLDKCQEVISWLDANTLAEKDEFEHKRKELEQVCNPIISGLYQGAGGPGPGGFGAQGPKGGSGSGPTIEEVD
HSP70 co-purified with His-tagged PGRN from HEK293EBAN cells: residues 2-641 of P0DMV8
UniProt P17987: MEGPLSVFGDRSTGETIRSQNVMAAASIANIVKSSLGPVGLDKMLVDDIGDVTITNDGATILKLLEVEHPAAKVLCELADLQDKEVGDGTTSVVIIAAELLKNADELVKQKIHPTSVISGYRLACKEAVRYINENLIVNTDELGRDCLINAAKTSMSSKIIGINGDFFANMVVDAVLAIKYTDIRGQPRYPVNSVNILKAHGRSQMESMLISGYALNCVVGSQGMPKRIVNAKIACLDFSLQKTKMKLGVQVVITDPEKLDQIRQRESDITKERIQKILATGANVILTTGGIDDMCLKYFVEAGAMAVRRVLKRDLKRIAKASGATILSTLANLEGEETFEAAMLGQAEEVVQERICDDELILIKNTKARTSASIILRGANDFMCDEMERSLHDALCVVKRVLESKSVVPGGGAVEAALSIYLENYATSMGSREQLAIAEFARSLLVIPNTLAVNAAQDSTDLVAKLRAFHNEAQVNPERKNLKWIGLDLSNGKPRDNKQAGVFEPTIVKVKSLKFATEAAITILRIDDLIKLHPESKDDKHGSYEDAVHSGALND
UniProt P02769, residues 25-607: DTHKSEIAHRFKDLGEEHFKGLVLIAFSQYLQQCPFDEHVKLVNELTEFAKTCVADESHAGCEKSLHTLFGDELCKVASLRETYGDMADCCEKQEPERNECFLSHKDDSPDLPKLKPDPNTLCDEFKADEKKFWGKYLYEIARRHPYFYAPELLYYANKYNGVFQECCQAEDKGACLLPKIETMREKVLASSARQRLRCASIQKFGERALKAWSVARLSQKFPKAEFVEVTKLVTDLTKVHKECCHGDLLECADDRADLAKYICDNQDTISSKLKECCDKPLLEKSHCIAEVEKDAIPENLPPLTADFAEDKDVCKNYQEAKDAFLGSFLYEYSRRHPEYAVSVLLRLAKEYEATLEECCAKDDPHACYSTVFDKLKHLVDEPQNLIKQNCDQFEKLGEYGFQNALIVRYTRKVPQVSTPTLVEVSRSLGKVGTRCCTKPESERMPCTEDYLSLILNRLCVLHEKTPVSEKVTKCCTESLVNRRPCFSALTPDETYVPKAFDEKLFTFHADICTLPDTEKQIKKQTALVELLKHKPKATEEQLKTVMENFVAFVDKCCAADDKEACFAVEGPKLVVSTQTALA
UniProt P28799: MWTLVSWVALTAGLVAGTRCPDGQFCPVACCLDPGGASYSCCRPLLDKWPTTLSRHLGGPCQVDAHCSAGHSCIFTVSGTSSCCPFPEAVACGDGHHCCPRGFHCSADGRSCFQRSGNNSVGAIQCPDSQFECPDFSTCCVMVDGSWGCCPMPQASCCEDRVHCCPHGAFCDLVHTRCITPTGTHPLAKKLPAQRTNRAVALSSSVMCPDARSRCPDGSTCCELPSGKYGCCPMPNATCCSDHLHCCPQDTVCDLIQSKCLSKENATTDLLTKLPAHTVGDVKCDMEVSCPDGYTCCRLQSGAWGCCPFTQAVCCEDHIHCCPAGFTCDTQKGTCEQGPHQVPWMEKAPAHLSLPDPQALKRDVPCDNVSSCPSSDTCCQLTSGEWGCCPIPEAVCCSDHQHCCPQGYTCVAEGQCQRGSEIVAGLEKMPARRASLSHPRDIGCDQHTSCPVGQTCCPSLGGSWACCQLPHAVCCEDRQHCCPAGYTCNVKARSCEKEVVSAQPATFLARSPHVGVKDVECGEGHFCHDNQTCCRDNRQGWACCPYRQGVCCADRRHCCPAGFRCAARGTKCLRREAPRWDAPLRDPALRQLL

Assay [3] addresses HSP70 expressed from a plasmid in transfected 293T cells (UniProt P0DMV8). In words: co-IP with GFP antibody, probed with HSP70 antibody, 293T cells.
The target of assay [4] is T1, RFP-fused GBA (encoded by pDsRed-GBA). In words: co-IP with GFP antibody, probed with RFP antibody, 293T cells.
For assay [5] the target is unchanged. In words: FRET in co-transfected 293 EBNA cells.
Assay [6] has the same target. In words: co-IP with GFP antibody, probed with anti-RFP, 293 EBNA cells.
For assay [7] the target is unchanged. In words: co-IP from co-transfected 293 EBNA cells: IP anti-GFP, IB anti-RFP.
Assay [8] shares this target. In words: FRET in co-transfected 293 EBNA cells, excitation 488 nm, emission 588 nm.
Assay [9] shares this target. In words: co-IP and FRET with deletion mutants (summary of Example 2).
Assay [10] addresses TCP1 co-purified with His-tagged PGRN from HEK293EBAN cells (UniProt P17987). In words: co-purification from stably transfected HEK293EBAN cells, MS.
Assay [11] addresses HSP70 co-purified with His-tagged PGRN from HEK293EBAN cells (UniProt P0DMV8). The description is as above.
Assay [12] addresses Biotin-labeled HSP70 (solid phase binding assay) (UniProt P0DMV8). In words: solid phase binding, Pcgin coated, biotin-labeled HSP70, ELISA-based detection.
In the next assay the target is BSA (bovine) (UniProt P02769). In words: solid phase (ELISA-based) binding: Pcgin coated on the plate, BSA as negative control.

Binding data for twelve substances are collected here from US20180222952A1.

These are yes or no findings as the source states them, for the method shown. For some of these results: In cells and extracts the contact can be indirect. Some entries that bind do so weakly or less than the wild type. For some of these results: Sequences can lack the tags named with a protein.

Consider “GFP fused Pcgin/ND7 deletion mutant lacking aa523-534 (from UniProt P28799 496-593)”, for which the binding result in assay [1] is “binds”.
As to “GFP fused Pcgin/ND7 deletion mutant lacking aa535-539 (RDNRQ) (from UniProt P28799 496-593)”, the binding entry in assay [2] is “binds”.
Regarding “GFP fused Pcgin/ND7 deletion mutant Δ496-522 (from UniProt P28799 523-593)”, the binding entry in assay [2], in assay [1], in [3] and in assay [4] was “binds” in each case.
Turning to “GFP fused Pcgin/ND7 deletion mutant Δ574-593 (from UniProt P28799 496-573)”, the binding entry in [2], in assay [1], in assay [3] and in [4] was “binds” throughout.
As for “GFP-tagged PGRN N-terminal deletion mutant ND1 (aa 45-593) (from UniProt P28799 45-593)”, the binding result in assay [5], in assay [6], in assay [7] and in assay [8] was “binds” throughout.
For the substance “GFP-tagged PGRN N-terminal deletion mutant ND2 (aa 113-593) (from UniProt P28799 113-593)”, the binding entry in assay [5], in [6], in [7] and in assay [8] was “binds” throughout.
As for “GFP-tagged PGRN N-terminal deletion mutant ND4 (aa 261-593) (from UniProt P28799 261-593)”, the binding result in assay [5], in [6], in [7] and in assay [8] was “binds” each time.
Take “GFP-tagged PGRN N-terminal deletion mutant ND5 (aa 336-593) (from UniProt P28799 336-593)”: the binding result in assay [5], in assay [6], in assay [7] and in [8] was “binds” each time.
As for “GFP-tagged PGRN N-terminal deletion mutant ND6 (aa 416-593) (from UniProt P28799 416-593)”, the binding entry in assay [5], in [6], in assay [7] and in [8] was “binds” throughout.
With “GFP-tagged PGRN N-terminal deletion mutant ND7 (aa 496-593); GFP fused Pcgin (from UniProt P28799 496-593)”, the binding entry in assay [2], in assay [1], in [3], in [5], in [6] and in assay [4] was “binds” in each case. Also, the binding entry in [9], in assay [7] and in assay [8] was “binds” each time.
With “Recombinant His-tag PGRN protein (full length progranulin) (from UniProt P28799 18-593) (ligand)”, the binding entry in assay [10] and in [11] was “binds” in each case.
Take “Recombinant Pcgin, His-tagged, expressed in bacteria (from UniProt P28799 496-593)”: the binding entry was “binds” in [12] and “no binding (tested: 5 µg/ml)” with BSA (bovine).
